Paper PMC8867111

Columns and labels:
[1] = molecular target: ZBP1, endogenous in PBMCs (human (endogenous in PBMCs)); assay: co-IP
His-ZBP1 = assay: pull-down; purified GST-TRIM34, His-RIPK3 and His-ZBP1 mixed (3.2 nM) in various combinations, immunoprecipitated with the indicated antibody, Western blot; both purified
ZBP1 (K43A) = assay: co-IP; 293T cells transfected for 48 h; IP-lysis buffer (50 mM Tris-HCl, 150 mM NaCl, 1% Triton X-100, 1 mM EDTA, 10% glycerol, pH 7.4); indicated antibodies, protein G agarose, 4 C; wash with 300 mM NaCl; immunoblot

B1: TRIM34, endogenous in PBMCs (protein, UniProt Q9BYJ4 1-488)
chain: MASKILLNVQEEVTCPICLELLTEPLSLDCGHSLCRACITVSNKEAVTSMGGKSSCPVCGISYSFEHLQANQHLANIVERLKEVKLSPDNGKKRDLCDHHGEKLLLFCKEDRKVICWLCERSQEHRGHHTVLTEEVFKECQEKLQAVLKRLKKEEEEAEKLEADIREEKTSWKYQVQTERQRIQTEFDQLRSILNNEEQRELQRLEEEEKKTLDKFAEAEDELVQQKQLVRELISDVECRSQWSTMELLQDMSGIMKWSEIWRLKKPKMVSKKLKTVFHAPDLSRMLQMFRELTAVRCYWVDVTLNSVNLNLNLVLSEDQRQVISVPIWPFQCYNYGVLGSQYFSSGKHYWEVDVSKKTAWILGVYCRTYSRHMKYVVRRCANRQNLYTKYRPLFGYWVIGLQNKCKYGVFEESLSSDPEVLTLSMAVPPCRVGVFLDYEAGIVSFFNVTSHGSLIYKFSKCCFSQPVYPYFNPWNCPAPMTLCPPSS
With B1 the binding [1] was “binds”.

B2: GST-TRIM34 (protein, UniProt Q9BYJ4 1-488)
chain: B1 chain
In the case of B2, the binding (His-ZBP1) is reported as “binds”.

B3: Flag-tagged TRIM34 (protein, UniProt Q9BYJ4 1-488)
chain: B1 chain
With B3 the binding (ZBP1 (K43A)) was “binds”.

These are yes or no findings as the source states them, for the method shown. Binding can be weak; no strength is given. For part of these data: Sequences can lack the tags named with a protein. For part of these data: In cells and extracts the contact can be indirect.
